Laboratory results from paper doi:10.1101/2024.02.12.579695.

Tests used:
[1] = system: DR2539 (form not stated) (Deinococcus radiodurans); experiment: EMSA; conditions: 0.5 mM Mn2+
[2] = system: DR2539 (form not stated) (Deinococcus radiodurans); experiment: CD titration
[3] = loss of Tyr59 contact not essential
[4] = mutation of all major-groove nucleotides: complete loss

## ATTCTGGTCGCGCCCAGAATA (double strand) [dr1709p_T4C/A6G]
[1]; dramatic decrease (T4 and reverse T16 both mutated)
  binding result: binds more weakly

## AGTTTAGTCGCGCCTAAACTA (double strand) [dr1709p_T2G]
[1]; [3]
  binding result: binds

## ATGGGAGTCGCGCCTCCCATA (double strand) [dr1709p_T345G]
[1]; [4]
  binding result: no binding

## ATTTTAGTCGCGCCTAAAATA (double strand) [dr1709p_wt]
[1]
  binding result: binds
[2]; 2 mM EDTA
  binding result: no binding
[2]; no EDTA
  binding result: binds

## ACTTTAGTCGCGCCTAAAGTA (double strand) [dr1709p_T2C]
[1]; [3]
  binding result: binds

## AGGGGAGTCGCGCCTCCCCTA (double strand) [dr1709p_T2345G]
[1]; [4]
  binding result: no binding

Construct, isoform or probe ends are uncertain for at least one entry. No signal at the amounts used counts as a negative. At least one verdict rests on a figure or table, not on a statement of the authors. For some assays here: Weaker means in comparison with the reference protein, sequence or condition of that experiment.
